Data as given in PubChem BioAssay AID2685 (National Center for Advancing Translational Sciences (NCATS), 2010).
Out of some 320,000 compounds screened, about 2,100 (0.66%) were called active. This list was built around the results that the source calls inconclusive (neither active nor inactive); the mix of calls is not that of the screen. Calls follow the shape of the dose curve; as a rule, active = well fitted inhibition curve with a large enough effect in the signal ratio, with a control signal flat (not every such curve was filed as active); inconclusive = small, poorly fitted or top-dose-only effect, or effect the other way, or a change in a side signal; inactive = flat fitted curve, though single readings scatter; the % refers to the signal ratio. Potencies of inconclusive entries are doubtful fits and often do not repeat.
% is scaled to controls: 0 for no effect and ±100 for the full control effect; potency is read from the fitted curve at half-maximal effect.

Assay: qHTS Assay for Lipid Storage Modulators in Drosophila S3 Cells
Settings: BODIPY lipid droplet fluorescence, 18-24 h, cells fed with added oleic acid; lipid storage change, negative = inhibition: at 46.1 µM (top of the series) unless noted
Procedure, shortened: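 Drosophila S3 cells got compounds at several concentrations plus oleic acid (400 uM solution). Laser-scanning cytometry with 488 nm excitation read lipid droplets at 500-530 nm and cells at 575-640 nm. Percent activity was relative to 20 uM Triacsin C.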
For `O=C(Nc1cccc(Br)c1)/C(=C\c1cccnc1)NC(=O)c1ccco1`, the lipid storage change, negative = inhibition was inconclusive: 16.8%.
In the case of `Cc1ccc(-c2noc(C3CCCN(C(=O)c4cccc([N+](=O)[O-])c4)C3)n2)o1` (stereo unspecified), the lipid storage change, negative = inhibition is reported as inconclusive: -167%.
In the case of `CCCc1cc(C(=O)NC2CCCCC2)no1`, the Potency is reported as inconclusive: 6.51 µM [rising, single point].
With `CCNc1nc(OCCNS(=O)(=O)c2cc(C)ccc2C)nc(N(C)C)n1` the Potency was inconclusive: 4.61 µM [activator, full curve].
With `O=C(Nc1ccc(S(=O)(=O)N2CCCCC2)cc1)C1CCCCC1` the lipid storage change, negative = inhibition was inconclusive: -149%.
In the case of `Brc1ccc(-c2nn3c(-c4ccncc4)nnc3s2)o1`, the lipid storage change, negative = inhibition is reported as inconclusive: 33.5%.
For `Cc1cccc(N2CCN(C(=O)C3CCN(S(=O)(=O)c4c(C)noc4C)CC3)CC2)c1C`, the Potency was inconclusive: 29.1 µM [activator, single point].
With `O=C(O)Cc1ccc(NC(=O)c2ccc(NC(=O)C3CC3)cc2)cc1` the lipid storage change, negative = inhibition was inconclusive: -15.7%.
In the case of `Cc1cc2oc(=O)cc(CN3CCc4ccccc43)c2cc1Cl`, the lipid storage change, negative = inhibition is reported as inconclusive: 17.9%.
With `CS(=O)(=O)N1CCC(C(=O)Nc2cccc([N+](=O)[O-])c2)CC1` the lipid storage change, negative = inhibition was inconclusive: 11.5%.
In the case of `O=C1CCCN1CCC1CCN(C2CC(=O)N(c3ccc(Cl)cc3)C2=O)CC1` (stereo unspecified), the Potency is reported as inconclusive: 29.1 µM [cytotoxic, single point].
For `O=C(CSc1nnc(NC(=O)C2CC(=O)N(c3ccccc3)C2)s1)NC1CCCC1` (stereo unspecified), the lipid storage change, negative = inhibition was inconclusive: -11.4%.
In the case of `O=C(NC(=S)Nc1ccc(N2CCCC2)cc1)c1ccc(F)cc1`, the lipid storage change, negative = inhibition is reported as inconclusive: 10.8%.
For `O=C(Cn1nnc(-c2cccs2)n1)Nc1ccccc1C(F)(F)F`, the lipid storage change, negative = inhibition was inconclusive: 12.6%.
In the case of `Cc1nnc(N/N=C/c2ccc(-c3ccccc3F)o2)n1N`, the lipid storage change, negative = inhibition is reported as inconclusive: -24.7%.
In the case of `Cc1ccc(F)cc1NC(=O)N1CCN(c2ccnc3cc(Cl)ccc23)CC1`, the lipid storage change, negative = inhibition is reported as inconclusive: 10.4%.
With `COc1ccccc1OCC(=O)N1CCN(c2ccccc2OC)CC1` the Potency was inconclusive: 2.31 µM [rising, single point].
For `Cc1csc2ncnc(N3CCN(S(=O)(=O)c4cccc(C(F)(F)F)c4)CC3)c12`, the Potency was inconclusive: 18.4 µM [falling, single point].
With `CC(=O)c1cccc(NC(=O)N2CCC(NC(=O)C3CCCCC3)CC2)c1` the Potency was inconclusive: 29.1 µM [falling, single point].
For `O=C(CCSc1ccc(F)cc1)NNC(=O)c1ccc([N+](=O)[O-])cc1`, the Potency was inconclusive: 16.4 µM [activator, partial curve].
For `O=S(=O)(CCc1nc2ccccc2[nH]1)c1ccc(Br)cc1`, the lipid storage change, negative = inhibition was inconclusive: 2.31%.
With `COc1cc2c(cc1OC)C1O[C@](CCCCN3C(=O)c4ccccc4C3=O)(C2)OC2=C1C(=O)CC(C)(C)C2` the lipid storage change, negative = inhibition was inconclusive: -34.3% [at 9.22 µM].
With `COc1cc(Cl)ccc1OCc1cc(C(=O)NCC(C)(C)N2CCOCC2)no1` the Potency was inconclusive: 32.6 µM [falling, single point].
For `N#CCCn1cc(/C=N/N=C2\NC(=O)C(CC(=O)O)S2)c(-c2ccc(F)cc2)n1` (stereo unspecified), the lipid storage change, negative = inhibition was inconclusive: 9.26%.
With `COCCCNC(=O)CSc1nc2cc(C(=O)NCCOC)ccc2c(=O)n1Cc1ccc2c(c1)OCO2` the lipid storage change, negative = inhibition was inconclusive: -114%.
With `N#CNC(=Nc1cccc(F)c1)SCc1ccccc1F` the Potency was inconclusive: 20.6 µM [falling, partial curve, poor fit].
In the case of `O=C(COC(=O)/C=C/c1ccc(C(F)(F)F)cc1)Nc1ccc2[nH]c(=O)[nH]c2c1`, the lipid storage change, negative = inhibition is reported as inconclusive: -23.7%.
For `CCOC(=O)C1CCCCN1Cc1ccc(C(F)(F)F)cc1` (stereo unspecified), the Potency was active: 6.51 µM.
In the case of `Cc1ccc(Oc2cc(NN3CCCCC3)c([N+](=O)[O-])cc2[N+](=O)[O-])c(Cl)c1`, the Potency is reported as inconclusive: 29.1 µM [activator, single point].
With `CN(CC1COc2ccccc2O1)C(=O)c1cccc(S(=O)(=O)N2CCCC2)c1` (stereo unspecified) the Potency was inconclusive: 29.1 µM [falling, single point].
With `COc1cccc(OCC(O)CNC(=O)c2oc3c(C)c(C)ccc3c2C)c1` (stereo unspecified) the Potency was inconclusive: 8.2 µM [activator, partial curve].
In the case of `Cc1nn(-c2ccccc2)c(C)c1NC(=O)COC(=O)c1cccc(OC(F)F)c1`, the lipid storage change, negative = inhibition is reported as “inconclusive”.
With `CCN(Cc1ccccc1)C(c1cc2ccc(C)cc2[nH]c1=O)c1nnnn1CCOC` (stereo unspecified) the Potency was inconclusive: 3.66 µM [falling, full curve, poor fit].
In the case of `CCOC(=O)c1sc2c(c1C)C(c1cccs1)C1=C(CCCC1=O)N2` (stereo unspecified), the lipid storage change, negative = inhibition is reported as inconclusive: -15.1%.
With `CCCN1C(=O)C2C(C(=O)Nc3cccc(OC)c3)C3C=CC2(O3)C1C(=O)NC1CCCCC1` (stereo unspecified) the lipid storage change, negative = inhibition was “inactive”.
In the case of `COc1ccc(N(C)S(=O)(=O)c2cccc(C(=O)OC(C(=O)Nc3cc(C)cc(C)c3)c3ccccc3)c2)cc1` (stereo unspecified), the lipid storage change, negative = inhibition is reported as inconclusive: -12.9%.
For `CCCCOC(=O)c1ccc(NC(=O)C(CCS(C)(=O)=O)NC(C)=O)cc1` (stereo unspecified), the lipid storage change, negative = inhibition was “inactive”.
With `Cc1nc(NC(=O)CSc2nc(N)cc(N)n2)sc1C` the lipid storage change, negative = inhibition was inconclusive: 467%.
In the case of `COCCN(CCOC)C(=O)Nc1ccc(Cl)cc1`, the lipid storage change, negative = inhibition is reported as inconclusive: 14.8%.
With `Cc1ccc(NC(=O)CNc2cccc(S(=O)(=O)N3CCCCC3)c2)cc1F` the Potency was active: 1.46 µM.
With `COC(=O)c1c(-c2ccccc2)c(-c2ccccc2)nn(C)c1=O` the lipid storage change, negative = inhibition was inconclusive: -25%.
For `CN1CCC(=NNc2ncnc3sc4c(c23)CCCC4)CC1`, the lipid storage change, negative = inhibition was inconclusive: 5.19%.
With `O=C(Nc1ccc(SC(F)F)cc1)c1ccccc1F` the lipid storage change, negative = inhibition was inconclusive: 6.57%.
With `CC(C)[C@H](NC(=O)Nc1ccc(Oc2ccccc2)cc1)C(=O)O` the lipid storage change, negative = inhibition was inconclusive: 63%.
For `Nn1cnnc1SCC(=O)Nc1ccc2c(c1)OCCO2`, the Potency was inconclusive: 29.1 µM [falling, single point].
For `CCOC(=O)c1cc2c(ccn2C)n1Cc1ccc(C#N)cc1`, the lipid storage change, negative = inhibition was inconclusive: 18.3%.
With `CCC(C)(C)NC(=O)C(c1ccccn1)N(C(=O)c1csnn1)C1CCCCC1` (stereo unspecified) the lipid storage change, negative = inhibition was inconclusive: -15.4%.
With `CC(C)CC(COCc1ccc([N+](=O)[O-])cc1)N1CCN(C(=O)c2ccc(C(F)(F)F)cc2)CCC1=O` (stereo unspecified) the lipid storage change, negative = inhibition was inconclusive: -8.52%.
With `O=C(Nc1nnc(-c2ccco2)s1)C1CCCCC1` the lipid storage change, negative = inhibition was inconclusive: 3.79%.
For `N/C(=N\OC(=O)C1CCCCC1)c1ccc(Cl)cc1`, the Potency was inconclusive: 14.6 µM [activator, partial curve, poor fit].
In the case of `Cc1cccc(CSCc2ccc(C(=O)NC(C)C)o2)c1`, the lipid storage change, negative = inhibition is reported as inconclusive: -5.13%.
In the case of `CN(C)S(=O)(=O)c1cccc(C(=O)NCc2cccs2)c1`, the lipid storage change, negative = inhibition is reported as inconclusive: 18.9%.
For `COc1cc(OC)c(OC)cc1CNC(=O)CCN1C(=O)c2cccc([N+](=O)[O-])c2C1=O`, the lipid storage change, negative = inhibition was inconclusive: -100%.
With `Cc1cccc(Cn2cnc3c(sc4nc(C)cc(C)c43)c2=O)c1` the lipid storage change, negative = inhibition was inconclusive: 88.3%.
In the case of `C/C(=N\Nc1ccccc1C(=O)O)c1ccncc1`, the lipid storage change, negative = inhibition is reported as inconclusive: -12.4%.
In the case of `CCOC(=O)Cc1c(C)nc2c(-c3cccc(Br)c3)c[nH]n2c1=O`, the lipid storage change, negative = inhibition is reported as inconclusive: 5.34%.
With `COCCCN1C(=O)C(O)=C(C(=O)c2ccco2)C1c1ccccc1` (stereo unspecified) the Potency was active: 3.66 µM.
In the case of `CCO[C@H]1OC(C(=O)Nc2ccccc2)=C[C@@H](c2coc3ccccc3c2=O)[C@@H]1CCCO`, the lipid storage change, negative = inhibition is reported as inconclusive: -7.67%.
In the case of `O=C(Cc1ccc(F)cc1)N1CCN=C1SCc1cccc([N+](=O)[O-])c1`, the lipid storage change, negative = inhibition is reported as inconclusive: 6.95%.
With `Cc1cc(C(=O)NC(C)CCC(C)C)c2ccccc2n1` (stereo unspecified) the lipid storage change, negative = inhibition was inconclusive: 6.22%.
For `COC(=O)c1ccc(CSc2nc3ccc(S(N)(=O)=O)cc3[nH]2)cc1`, the Potency was inconclusive: 2.59 µM [activator, full curve].
With `CC(=O)Nc1ccc(S(=O)(=O)N(C)S(=O)(=O)c2ccc(F)cc2)cc1` the lipid storage change, negative = inhibition was inconclusive: 11.7%.
With `COC(=O)Cc1c(C)nc2nc(-c3ccc(C)cc3)[nH]n2c1=O` the lipid storage change, negative = inhibition was inconclusive: 2.3%.
In the case of `O=C(Nc1ccccc1C(=O)OCC(=O)N1CCc2ccccc2C1)c1ccco1`, the Potency is reported as inconclusive: 29.1 µM [falling, single point].
In the case of `COc1ccc(NC(=S)N(CCc2c(C)[nH]c3ccc(C)cc23)Cc2cccs2)cc1`, the lipid storage change, negative = inhibition is reported as inconclusive: 34.4%.
For `O=C(CSc1nnc(Cn2cnc3ccccc32)o1)Nc1cccc2ccccc12`, the lipid storage change, negative = inhibition was inconclusive: 17.8%.
In the case of `COc1ccc2c3c(c(=O)oc2c1)C1O[C@](CCCCN2C(=O)c4ccccc4C2=O)(Cc2cc(OC)c(OC)cc21)O3`, the lipid storage change, negative = inhibition is reported as inconclusive: -12.6% [at 9.22 µM].
In the case of `CSc1ccccc1NC(=O)CN(C)C(=O)/C=C/c1ccccc1`, the lipid storage change, negative = inhibition is reported as inconclusive: 21.7%.
In the case of `CCn1c(CCCNC(=O)c2ccc(F)cc2)nc2ccccc21`, the Potency is reported as inconclusive: 4.61 µM [activator, partial curve].
In the case of `O=C(C1=C(O)C(=O)N(CCc2ccccc2)C1c1ccncc1)c1cc2ccccc2o1` (stereo unspecified), the lipid storage change, negative = inhibition is reported as inconclusive: 28.8%.
In the case of `Cc1ccc(C)c(OCc2cc(C(=O)N3CCN(c4ccccc4)CC3)no2)c1`, the lipid storage change, negative = inhibition is reported as inconclusive: 22.3%.
For `COc1ccc(S(=O)(=O)Cc2ccc(C(=O)NC3CCC(C)CC3)o2)cc1` (stereo unspecified), the Potency was inconclusive: 29.1 µM [activator, single point].
With `S=C(NCCC1=CCCCC1)Nc1ccccc1` the lipid storage change, negative = inhibition was inconclusive: -21.8%.
In the case of `O=C(CN1CCN(Cc2ccccc2)CC1)c1c[nH]c2ccccc12`, the lipid storage change, negative = inhibition is reported as inconclusive: -4.51%.
For `CCC(=O)c1ccc(OCC(=O)NNC(=O)c2cc(C)oc2C)cc1`, the lipid storage change, negative = inhibition was inactive: -5.26% [at 0.0737 µM].
With `COc1cc(/C=C2/C(=N)N3N=C(CC(=O)N4CCOCC4)SC3=NC2=O)ccc1OCc1ccc(F)cc1` the Potency was inconclusive: 29.1 µM [activator, single point].
